This is one part of the list. Further columns of the screen follow, without active or inactive calls. Compounds called inactive in the main read-out are mostly missing here. Potencies come from curve fits of mixed quality, noted in brackets.
Test: qHTS Assay for Lipid Storage Modulators in Drosophila S3 Cells;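 on cell number change: cells counted by Cell Tracker Red CMTPX staining in the red channel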
Conditions: BODIPY lipid droplet fluorescence, 18-24 h; for cell number change: measured here: cell count max response, cells fed with added oleic acid
Procedure, shortened: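 Laser-scanning cytometry quantifies lipid droplet accumulation (500–530 nm total intensity; droplet/cell object ratio) in oleic acid-fed (400 uM added) Drosophila S3 cells treated with a concentration series. 20 uM Triacsin C defined 100% inhibition.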

[1] = measured here: cell number channel AC50, cells fed with added oleic acid
[2] = measured here: lipid fluorescence (Fed channel) AC50, cells fed with added oleic acid

Structure (SMILES) | AC50 [1] | AC50 [2] | cell number change [%]
COc1ccc(N(C(=O)c2ccc(C)cc2)S(=O)(=O)c2cccs2)cc1 | 2.31 µM [rising, single point] | 20.6 µM [rising, single point] | –
O=C1CCc2cc(NS(=O)(=O)c3cc(F)ccc3F)cc3c2N1CC3 | – | 0.13 µM [falling, full curve, poor fit] | –
CCc1ccc(Nc2nnc(SCC(=O)NC(=O)CN3CCCC3=O)s2)cc1 | 3.66 µM [falling, single point] | 2.31 µM [falling, partial curve, poor fit] | -22.6
CCOc1ccc(Br)cc1/C(C)=N\NC1=NCCN1 | 10.3 µM [falling, partial curve, poor fit] | 6.51 µM [rising, partial curve] | -58.6
COc1ccccc1C(=O)Nc1ccc(S(=O)(=O)N2CCOCC2)cc1 | – | 0.517 µM [rising, partial curve, poor fit] | –
NC(=O)c1ccc(N2CCCCC2)c(N2C(=O)CCC2=O)c1 | – | 29.1 µM [falling, single point] | -31.1
O=C(CNC(=O)OCc1ccccc1)Oc1cc2oc(=O)cc(-c3ccccc3)c2cc1Cl | 6.51 µM [falling, single point] | 6.51 µM [falling, single point] | 5.59
C=CC[n+]1c(-c2ccc(OCC)cc2)csc1NNC(=O)Nc1ccccc1 | 1.64 µM [rising, partial curve] | 1.84 µM [rising, partial curve] | -55.7
O=c1oc2cc(O)ccc2cc1-c1ccccc1 | – | 18.4 µM [rising, single point] | 29.3
CC1c2cc3c(cc2CCN1C(=O)c1cccc(F)c1)OCCCO3 (stereo not drawn) | – | 4.11 µM [rising, partial curve, poor fit] | 7.37
CC1(c2cccc(Br)c2)NC(=O)N(CC(=O)Nc2ccc(F)cc2)C1=O (stereo not drawn) | – | 0.00461 µM [rising, full curve, poor fit] | 26.7
COc1cc(/C=C\C(=O)O)cc(S(=O)(=O)N2CCCCCC2)c1OC | – | – | -10.5
Cc1c(C(=O)N2CCC2)oc2ccc(Br)cc12 | 16.4 µM [rising, partial curve] | 16.4 µM [rising, partial curve] | 56.5
COc1ccc2c3c(c(=O)oc2c1OCC(=O)C(C)(C)C)CCCC3 | 1.64 µM [rising, partial curve, poor fit] | – | 33.9
COc1ccc2nc(SCC(=O)N(C)CC(=O)Nc3ccc(F)cc3)[nH]c2c1 | – | 1.03 µM [falling, full curve] | -1.32
O=C1CSC(=Nc2ccccc2[N+](=O)[O-])N1 | 0.651 µM [falling, full curve] | 1.46 µM [falling, full curve] | -52
CCOC(=O)c1c(-c2ccc(OCC)cc2)csc1NC(=O)CCN1C(=O)c2ccccc2C1=O | 0.58 µM [rising, full curve] | 1.46 µM [falling, partial curve, poor fit] | 35.9
CCN1C(=O)[C@@H]2Cc3c([nH]c4ccccc34)C(c3cc(OC)c(OC)c(OC)c3)N2C1=S (stereo partly drawn) | – | 29.1 µM [falling, single point] | 3.65

Part of the list above, in CSV form:
Structure (SMILES),AC50 [1],AC50 [2],cell number change [%]
CCOc1ccc(Br)cc1/C(C)=N\NC1=NCCN1,"10.3 µM [falling, partial curve, poor fit]","6.51 µM [rising, partial curve]",-58.6
O=C(CNC(=O)OCc1ccccc1)Oc1cc2oc(=O)cc(-c3ccccc3)c2cc1Cl,"6.51 µM [falling, single point]","6.51 µM [falling, single point]",5.59
O=c1oc2cc(O)ccc2cc1-c1ccccc1,–,"18.4 µM [rising, single point]",29.3
CC1c2cc3c(cc2CCN1C(=O)c1cccc(F)c1)OCCCO3 (stereo not drawn),–,"4.11 µM [rising, partial curve, poor fit]",7.37
CC1(c2cccc(Br)c2)NC(=O)N(CC(=O)Nc2ccc(F)cc2)C1=O (stereo not drawn),–,"0.00461 µM [rising, full curve, poor fit]",26.7
COc1ccc2nc(SCC(=O)N(C)CC(=O)Nc3ccc(F)cc3)[nH]c2c1,–,"1.03 µM [falling, full curve]",-1.32

Further compounds.

Structure (SMILES) | AC50 [1] | AC50 [2] | cell number change [%]
Cc1nn(C)c(Oc2cccc(Cl)c2)c1C=O | – | 0.184 µM [falling, partial curve, poor fit] | -2.09
CCCCOC(=O)Nc1cccc(C(C)=O)c1 | – | 29.1 µM [rising, single point] | 23
CN1C(=O)CC(C(=O)Nc2ccccc2F)SC1=Nc1ccc2c(c1)OCO2 (stereo not drawn) | 0.0146 µM [rising, full curve, poor fit] | 0.00517 µM [rising, full curve, poor fit] | –
COCCNC(=O)C1CCC(CNS(=O)(=O)c2ccc(F)cc2)CC1 (stereo not drawn) | – | 29.1 µM [rising, single point] | –
Nc1nnc(SCc2cc3c(cc2Cl)OCO3)s1 | – | 0.411 µM [falling, single point] | –
COc1ccc2cc(/C(C)=N/NC(=O)C3CC3)ccc2c1 | 0.731 µM [rising, single point] | 0.58 µM [rising, single point] | –
N/C(Cc1ccc(Cl)cc1Cl)=N\OC(=O)c1ccccc1F | 0.00517 µM [rising, full curve, poor fit] | – | 7.23
CS(=O)(=O)N1CCN(C(=O)Cc2ccccc2Cl)CC1 | 2.06 µM [falling, full curve] | 2.06 µM [falling, full curve] | -36.7
COc1ccccc1C(c1nnnn1Cc1ccccc1)N1CCN(c2nc3ccccc3s2)CC1 (stereo not drawn) | 1.64 µM [rising, full curve, poor fit] | 2.06 µM [rising, full curve] | 44.4
O=C(CSc1ccc(-c2ccccn2)nn1)Nc1cccc(F)c1 | – | – | -4.34
CS(=O)(=O)c1ccc(NC(=O)c2cccc(S(=O)(=O)N3CCN(Cc4ccccc4)CC3)c2)cc1 | – | – | -4.91
Cc1ccc(S(=O)(=O)N2CCN(Cc3cc(C(C)(C)C)ccc3O)CC2)cc1 | – | 20.6 µM [falling, single point] | -3.41
Cc1ccc(CNC(=O)C(CCC(N)=O)NC(=O)OCc2ccccc2)cc1 (stereo not drawn) | – | 6.51 µM [falling, single point] | 3.5
Cc1cc(C(=O)NCCC2=CCCCC2)c(C)o1 | – | – | -3.7
CC1CCCN(C/C=C/c2ccccc2[N+](=O)[O-])C1 (stereo not drawn) | 29.1 µM [falling, single point] | 29.1 µM [falling, single point] | -78.8
Cc1ccc(C)c(N2CCN(C(=O)c3cc(S(=O)(=O)N4CCOCC4)ccc3F)CC2)c1 | – | – | 16.7
CC(=O)c1cccc(NC(=O)CCc2nnc3ccc(NCc4ccco4)nn23)c1 | – | 25.9 µM [falling, partial curve, poor fit] | -15.6
O=C(CN1CCN(C(=O)c2ccco2)CC1)Nc1c2c(nc3c1CCC3)CCCC2 | – | 6.51 µM [falling, single point] | -18.5

From PubChem BioAssay AID2685 (National Center for Advancing Translational Sciences (NCATS), 2010)
